The test addresses 2×FLAG/V5-TBR1 (human) (UniProt Q16650). Description: affinity purification with mass spectrometry; nuclear extract of HEK293 cells stably expressing 2xFLAG/V5-TBR1 on anti-FLAG M2 agarose beads, 3 h at 4°C, buffer C-100 (20 mM HEPES pH 7.6, 20% glycerol, 100 mM KCl, 1.5 mM MgCl2, 0.2 mM EDTA) with benzonase and ethidium bromide; eluted with FLAG-tripeptide; two independent purifications (AP1, AP2); untransfected cells as control.

By UniProt entry, the sequences of proteins in these tests, tags left out.
UniProt Q16650: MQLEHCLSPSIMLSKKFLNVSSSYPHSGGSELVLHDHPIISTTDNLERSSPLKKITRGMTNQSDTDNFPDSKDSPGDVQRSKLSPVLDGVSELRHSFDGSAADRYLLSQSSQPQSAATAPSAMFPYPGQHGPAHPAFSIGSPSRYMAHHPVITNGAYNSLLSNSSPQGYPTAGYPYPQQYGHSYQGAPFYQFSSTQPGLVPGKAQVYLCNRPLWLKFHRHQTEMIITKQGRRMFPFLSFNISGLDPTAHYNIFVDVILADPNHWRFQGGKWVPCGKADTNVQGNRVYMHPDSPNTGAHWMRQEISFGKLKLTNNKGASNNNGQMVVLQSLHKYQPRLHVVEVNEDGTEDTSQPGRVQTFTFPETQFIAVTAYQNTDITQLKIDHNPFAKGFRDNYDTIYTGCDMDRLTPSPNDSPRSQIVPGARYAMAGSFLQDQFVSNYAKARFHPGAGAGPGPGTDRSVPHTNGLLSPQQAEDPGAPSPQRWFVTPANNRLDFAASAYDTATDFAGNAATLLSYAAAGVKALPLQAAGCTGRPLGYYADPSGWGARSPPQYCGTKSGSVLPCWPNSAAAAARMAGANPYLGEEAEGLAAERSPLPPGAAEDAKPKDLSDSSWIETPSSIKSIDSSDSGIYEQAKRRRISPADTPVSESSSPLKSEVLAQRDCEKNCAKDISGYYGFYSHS

These are yes or no findings as the source states them, for the method shown. In cells and extracts the contact can be indirect. A yes stands for co-enrichment or nearness to the bait. Other partners may have been found.

B1: ZNF687 (protein, UniProt Q8N1G0 1-1237)
chain: MGDMKTPDFDDLLAAFDIPDIDANEAIHSGPEENEGPGGPGKPEPGVGSESEDTAAASAGDGPGVPAQASDHGLPPPDISVVSVIVKNTVCPEQSEALAGGSAGDGAQAAGVTKEGPVGPHRMQNGFGSPEPSLPGTPHSPAPPSGGTWKEKGMEGKTPLDLFAHFGPEPGDHSDPLPPSAPSPTREGALTPPPFPSSFELAQENGPGMQPPVSSPPLGALKQESCSPHHPQVLAQQGSGSSPKATDIPASASPPPVAGVPFFKQSPGHQSPLASPKVPVCQPLKEEDDDEGPVDKSSPGSPQSPSSGAEAADEDSNDSPASSSSRPLKVRIKTIKTSCGNITRTVTQVPSDPDPPAPLAEGAFLAEASLLKLSPATPTSEGPKVVSVQLGDGTRLKGTVLPVATIQNASTAMLMAASVARKAVVLPGGTATSPKMIAKNVLGLVPQALPKADGRAGLGTGGQKVNGASVVMVQPSKTATGPSTGGGTVISRTQSSLVEAFNKILNSKNLLPAYRPNLSPPAEAGLALPPTGYRCLECGDAFSLEKSLARHYDRRSMRIEVTCNHCARRLVFFNKCSLLLHAREHKDKGLVMQCSHLVMRPVALDQMVGQPDITPLLPVAVPPVSGPLALPALGKGEGAITSSAITTVAAEAPVLPLSTEPPAAPATSAYTCFRCLECKEQCRDKAGMAAHFQQLGPPAPGATSNVCPTCPMMLPNRCSFSAHQRMHKNRPPHVCPECGGNFLQANFQTHLREACLHVSRRVGYRCPSCSVVFGGVNSIKSHIQTSHCEVFHKCPICPMAFKSGPSAHAHLYSQHPSFQTQQAKLIYKCAMCDTVFTHKPLLSSHFDQHLLPQRVSVFKCPSCPLLFAQKRTMLEHLKNTHQSGRLEETAGKGAGGALLTPKTEPEELAVSQGGAAPATEESSSSSEEEEVPSSPEPPRPAKRPRRELGSKGLKGGGGGPGGWTCGLCHSWFPERDEYVAHMKKEHGKSVKKFPCRLCERSFCSAPSLRRHVRVNHEGIKRVYPCRYCTEGKRTFSSRLILEKHVQVRHGLQLGAQSPGRGTTLARGSSARAQGPGRKRRQSSDSCSEEPDSTTPPAKSPRGGPGSGGHGPLRYRSSSSTEQSLMMGLRVEDGAQQCLDCGLCFASPGSLSRHRFISHKKRRGVGKASALGLGDGEEEAPPSRSDPDGGDSPLPASGGPLTCKVCGKSCDSPLNLKTHFRTHGMAFIRARQGAVGDN
As for B1, the binding result is “binds”.

B2: ZNF592 (protein, UniProt Q92610 1-1267)
chain: MGDMKTPDFDDLLAAFDIPDPTSLDAKEAIQTPSEENESPLKPPGICMDESVSLSHSGSAPDVPAVSVIVKNTSRQESFEAEKDHITPSLLHNGFRGSDLPPDPHNCGKFDSTFMNGDSARSFPGKLEPPKSEPLPTFNQFSPISSPEPEDPIKDNGFGIKPKHSDSYFPPPLGCGAVGGPVLEALAKFPVPELHMFDHFCKKEPKPEPLPLGSQQEHEQSGQNTVEPHKDPDATRFFGEALEFNSHPSNSIGESKGLARELGTCSSVPPRQRLKPAHSKLSSCVAALVALQAKRVASVTKEDQPGHTKDLSGPTKESSKGSPKMPKSPKSPRSPLEATRKSIKPSDSPRSICSDSSSKGSPSVAASSPPAIPKVRIKTIKTSSGEIKRTVTRILPDPDDPSKSPVGSPLGSAIAEAPSEMPGDEVPVEEHFPEAGTNSGSPQGARKGDESMTKASDSSSPSCSSGPRVPKGAAPGSQTGKKQQSTALQASTLAPANLLPKAVHLANLNLVPHSVAASVTAKSSVQRRSQPQLTQMSVPLVHQVKKAAPLIVEVFNKVLHSSNPVPLYAPNLSPPADSRIHVPASGYCCLECGDAFALEKSLSQHYGRRSVHIEVLCTLCSKTLLFFNKCSLLRHARDHKSKGLVMQCSQLLVKPISADQMFVSAPVNSTAPAAPAPSSSPKHGLTSGSASPPPPALPLYPDPVRLIRYSIKCLECHKQMRDYMVLAAHFQRTTEETEGLTCQVCQMLLPNQCSFCAHQRIHAHKSPYCCPECGVLCRSAYFQTHVKENCLHYARKVGYRCIHCGVVHLTLALLKSHIQERHCQVFHKCAFCPMAFKTASSTADHSATQHPTQPHRPSQLIYKCSCEMVFNKKRHIQQHFYQNVSKTQVGVFKCPECPLLFVQKPELMQHVKSTHGVPRNVDELSSLQSSADTSSSRPGSRVPTEPPATSVAARSSSLPSGRWGRPEAHRRVEARPRLRNTGWTCQECQEWVPDRESYVSHMKKSHGRTLKRYPCRQCEQSFHTPNSLRKHIRNNHDTVKKFYTCGYCTEDSPSFPRPSLLESHISLMHGIRNPDLSQTSKVKPPGGHSPQVNHLKRPVSGVGDAPGTSNGATVSSTKRHKSLFQCAKCSFATDSGLEFQSHIPQHQVDSSTAQCLLCGLCYTSASSLSRHLFIVHKVRDQEEEEEEEAAAAEMAVEVAEPEEGSGEEVPMETRENGLEECAGEPLSADPEARRLLGPAPEDDGGHNDHSQPQASQDQDSHTLSPQV
Regarding B2, the binding entry was “binds”.

These data come from PMC10117376.
